This experiment deals with IMPORTIN-α2:GFP (Arabidopsis thaliana) (UniProt F4JL11). The experiment is described as follows: co-IP; GFP-tagged importin-α (or YFP) and RFP-tagged protein co-expressed in N. benthamiana, 72 h; leaf extract in 50 mM Tris, 150 mM NaCl, 10% glycerol, 1 mM EDTA, 5 mM DTT, pH 7.5; precipitated with α-GFP-nanobody:Halo:His6 magnetic beads, 2 h at 4°C; α-RFP western blot. For orientation: Immunoblotting shows a protein as a band on a membrane.

By UniProt entry, the sequences of proteins in these tests, tags left out.
UniProt F4JL11: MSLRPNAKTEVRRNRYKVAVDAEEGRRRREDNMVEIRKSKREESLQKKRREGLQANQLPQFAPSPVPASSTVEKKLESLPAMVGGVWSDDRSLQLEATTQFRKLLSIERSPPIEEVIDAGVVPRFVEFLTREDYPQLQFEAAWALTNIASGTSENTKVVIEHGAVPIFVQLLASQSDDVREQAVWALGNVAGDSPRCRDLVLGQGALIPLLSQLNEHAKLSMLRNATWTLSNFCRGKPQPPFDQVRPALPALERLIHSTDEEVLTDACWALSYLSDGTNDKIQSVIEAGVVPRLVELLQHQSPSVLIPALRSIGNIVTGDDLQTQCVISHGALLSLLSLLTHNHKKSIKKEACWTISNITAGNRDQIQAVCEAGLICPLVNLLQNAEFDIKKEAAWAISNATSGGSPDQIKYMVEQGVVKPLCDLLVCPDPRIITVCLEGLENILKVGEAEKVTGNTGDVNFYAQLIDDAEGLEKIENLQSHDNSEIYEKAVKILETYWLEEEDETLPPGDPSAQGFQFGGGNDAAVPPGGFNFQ

Here are results for one molecule from PMC6230994.

These are yes or no findings as the source states them, for the method shown. Binding seen in cells or lysates may run through a third protein. Some results given as binding are weak or reduced against the parent protein; the word gives no strength. Sequences can lack the tags named with a protein.

B1: SAP:RFP (PARP2 SAP domains fused to RFP) (domain or fragment, UniProt Q11207 1-127)
chain: MANKLKVDELRLKLAERGLSTTGVKAVLVERLEEAIAEDTKKEESKSKRKRNSSNDTYESNKLIAIGEFRGMIVKELREEAIKRGLDTTGTKKDLLERLCNDANNVSNAPVKSSNGTDEAEDDNNGF
In the case of B1, the binding result was “binds”.
